Measurements reported in PubChem BioAssay AID1259308 (NCATS, 2017).
Purpose: 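Knock-downs that increase output of a recombinant reporter protein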 (primary screen). Cell system: human HEK293 embryonic kidney cells stably expressing firefly luciferase (HEK-CMV-Luc2-Hygro). Reagent: single siRNA against human genes, 0.8 pmol siRNA per well. Time to read-out: 72 h. Measured: 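Reporter luminescence and viable-cell signal on separate replicate plates, given as percent of non-targeting control and median/MAD z-scores, plus per-cell luciferase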. Direction: total luciferase, z-score and total luciferase, % of control: higher = more reporter protein produced. Rule for the call: 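An siRNA counts as active if its total luciferase robust z-score exceeds 3; genes with two or more such siRNAs out of three were retested with fresh siRNAs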. Calls: active = raised luciferase; inactive = no rise.
The deposit covers about 59,000 reagents; shown is a random part of them. Over the whole deposit, about 1,510 (2.6%) got an active call. 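Calls use total luciferase alone and ignore viability, so some active siRNAs may act by altering cell number.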 Not all columns of the deposit are shown. No sequences are given here.

no.	gene knocked down	PubChem SID	total luciferase, z-score	total luciferase, % of control	outcome
1	CFAP65 (cilia and flagella associated protein 65)	SID160732815	-1.45	53	inactive
2	CFAP65 (cilia and flagella associated protein 65)	SID160762266	1.17	105	inactive
3	CFAP65 (cilia and flagella associated protein 65)	SID160762267	0.487	91.6	inactive
4	AIF1L (allograft inflammatory factor 1 like)	SID160751183	1.61	114	inactive
5	AIF1L (allograft inflammatory factor 1 like)	SID160751184	-1.71	47.9	inactive
6	AIF1L (allograft inflammatory factor 1 like)	SID160751185	0.413	90.1	inactive
7	LINC01085 (long independently transcribed non-coding RNA 1085)	SID160759271	0.0562	83	inactive
8	LINC01085 (long independently transcribed non-coding RNA 1085)	SID160759272	-1.69	48.3	inactive
9	LINC01085 (long independently transcribed non-coding RNA 1085)	SID160759273	0.412	90.1	inactive
10	PABPC4L (poly(A) binding protein cytoplasmic 4 like)	SID160757168	0.754	96.9	inactive
11	PABPC4L (poly(A) binding protein cytoplasmic 4 like)	SID160757169	-0.359	74.7	inactive
12	PABPC4L (poly(A) binding protein cytoplasmic 4 like)	SID160757170	-0.315	75.6	inactive
13	POLR2H (RNA polymerase II, I and III subunit H)	SID160714633	-2.95	23.2	inactive
14	POLR2H (RNA polymerase II, I and III subunit H)	SID160714634	-2.74	27.3	inactive
15	POLR2H (RNA polymerase II, I and III subunit H)	SID160714635	-2.06	40.8	inactive
16	YWHAE	SID160720021	-1.7	48.1	inactive
17	YWHAE	SID160726472	0.649	94.8	inactive
18	YWHAE	SID160727862	-0.0927	80	inactive
19	YWHAE	SID160731880	-1.33	55.5	inactive
20	YWHAE	SID160734244	0.0195	82.3	inactive
21	YWHAE	SID160734245	0.61	94	inactive
22	TMCO1 (transmembrane and coiled-coil domains 1)	SID160741799	0.507	92	inactive
23	TMCO1 (transmembrane and coiled-coil domains 1)	SID160741800	0.156	85	inactive
24	TMCO1 (transmembrane and coiled-coil domains 1)	SID160741801	-2.34	35.4	inactive
25	RNF151 (ring finger protein 151)	SID160724850	1.17	105	inactive
26	RNF151 (ring finger protein 151)	SID160732535	-0.366	74.6	inactive
27	RNF151 (ring finger protein 151)	SID160758346	2.44	130	inactive
28	NDUFA3P3 (NADH:ubiquinone oxidoreductase subunit A3 pseudogene 3)	SID160733877	0.401	89.9	inactive
29	NDUFA3P3 (NADH:ubiquinone oxidoreductase subunit A3 pseudogene 3)	SID160769215	0.693	95.7	inactive
30	NDUFA3P3 (NADH:ubiquinone oxidoreductase subunit A3 pseudogene 3)	SID160769216	-1.32	55.7	inactive
31	SPRYD3 (SPRY domain containing 3)	SID160752957	0.571	93.2	inactive
32	SPRYD3 (SPRY domain containing 3)	SID160752958	0.00455	82	inactive
33	SPRYD3 (SPRY domain containing 3)	SID160752959	0.952	101	inactive
34	TDRG1 (testis development regulator, piRNA precursor)	SID160774396	-0.389	74.1	inactive
35	TDRG1 (testis development regulator, piRNA precursor)	SID160774397	-0.308	75.8	inactive
36	TDRG1 (testis development regulator, piRNA precursor)	SID160774398	1.33	108	inactive
37	SRA1 (steroid receptor RNA activator 1)	SID160723884	-0.5	71.9	inactive
38	SRA1 (steroid receptor RNA activator 1)	SID160723891	-0.816	65.7	inactive
39	SRA1 (steroid receptor RNA activator 1)	SID160723894	0.0303	82.5	inactive
40	RNF185 (ring finger protein 185)	SID160753983	0.842	98.6	inactive
41	RNF185 (ring finger protein 185)	SID160753984	0.527	92.4	inactive
42	RNF185 (ring finger protein 185)	SID160753985	0.368	89.2	inactive
43	SSR1 (signal sequence receptor subunit 1)	SID160717380	0.961	101	inactive
44	SSR1 (signal sequence receptor subunit 1)	SID160717381	-0.589	70.2	inactive
45	SSR1 (signal sequence receptor subunit 1)	SID160717382	-1.06	60.8	inactive
46	SLC6A18	SID160765089	0.958	101	inactive
47	SLC6A18	SID160765091	0.204	85.9	inactive
48	SLC6A18	SID160765092	0.317	88.2	inactive
49	SLC13A4	SID160737865	3.05	143	active
50	SLC13A4	SID160737866	0.0378	82.6	inactive
51	SLC13A4	SID160737867	-2.18	38.4	inactive
52	STARD5 (StAR related lipid transfer domain containing 5)	SID160750547	-0.321	75.5	inactive
53	STARD5 (StAR related lipid transfer domain containing 5)	SID160750548	-1.64	49.2	inactive
54	STARD5 (StAR related lipid transfer domain containing 5)	SID160750549	-1.47	52.6	inactive
55	CCDC7 (coiled-coil domain containing 7)	SID160734946	3.08	143	active
56	CCDC7 (coiled-coil domain containing 7)	SID160749334	-0.287	76.2	inactive
57	CCDC7 (coiled-coil domain containing 7)	SID160749335	0.0682	83.2	inactive
58	CCDC7 (coiled-coil domain containing 7)	SID160761571	0.0737	83.4	inactive
59	CCDC7 (coiled-coil domain containing 7)	SID160761572	-0.117	79.6	inactive
60	CCDC7 (coiled-coil domain containing 7)	SID160761573	0.397	89.8	inactive
